Measurements from PubChem BioAssay AID493014 (National Center for Advancing Translational Sciences (NCATS), 2011).
Some of the results follow. The main result of the screen is listed elsewhere. These columns were measured beside it and carry no call. Compounds called inactive in the main read-out are mostly missing here. Potencies come from curve fits of mixed quality, noted in brackets.

Test: qHTS Assay to Find Inhibitors of Chronic Active B-Cell Receptor Signaling
Details: ABC-DLBCL IkBa-CBG/CBR reporter, luminescence ratio (green luciferase fused to IkBa over red control in TMD8 lymphoma cells), 4 h
How it was run: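 TMD8 human ABC-DLBCL cells with doxycycline-inducible IκBα–green luciferase fusion and unfused red luciferase, in 0.5% FBS medium; compounds up to 46 uM, 4 h at 37C. Green/red luminescence ratio, filter-overlap corrected, fitted to concentration-response curves.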

[1] = measured here: CBR red luminescence, cell number
[2] = measured here: IkBa-CBG green luminescence

| Structure (SMILES) | AC50 [1] | AC50 [2] |
| --- | --- | --- |
| COc1ccc(Cl)cc1NC(=O)CN(C)C(=O)C1CC(=O)N(Cc2ccc(C)cc2)C1 (configuration not stated) | 20.6 µM [falling, partial curve, poor fit] | – |
| Cc1[nH]c2ccccc2c1/C=C(\C#N)C(=O)NC1CC1 | 8.91 µM [falling, partial curve] | – |
| COc1cccc(-c2ncc3ccccc3c2COC(=O)c2ccco2)c1 | 9.2 µM [falling, partial curve] | – |
| Cc1ccccc1OCC(O)CN1CCN(CCN2C(=O)c3cccc4cccc(c34)C2=O)CC1 (configuration not stated) | 10.3 µM [rising, partial curve] | 16.4 µM [falling, partial curve, poor fit] |
| Cc1cccc(C(=O)OCC(=O)NC2CC2)c1O | 2.31 µM [rising, partial curve, poor fit] | – |
| CN(Cc1nc(-c2ccccn2)no1)S(=O)(=O)c1ccccc1 | 0.651 µM [falling, full curve, poor fit] | – |
| CCN1C(=O)[C@@H]2[C@@H](c3ccc(-c4ccc(OC)cc4)c(OC)c3)N3CCCC[C@@]3(C(=O)OC)[C@@H]2C1=O | 4.61 µM [rising, single point] | – |
| COc1cccc(Cn2nnc(C(=O)NCCc3ccc(Cl)cc3)c2N)c1 | 2.91 µM [rising, partial curve, poor fit] | – |
| CCOC(=O)Cn1cc(/C=C/[N+](=O)[O-])c2ccccc21 | – | 35.5 µM [falling, single point] |
| Oc1cc2c(cc1O)C1c3ccc(O)c(O)c3OCC1(O)C2 (configuration not stated) | 10 µM [falling, single point] | – |
| CC(C)(C)SCCNC(=O)COc1ccccc1 | 0.517 µM [rising, partial curve, poor fit] | – |
| O=C(/C=C/c1cccs1)NC(=S)NNC(=O)c1ccccc1O | 12.6 µM [falling, partial curve, poor fit] | – |
| O=C(COc1ccc(Cl)cc1)N(Cc1ccccc1)c1nc(-c2ccccc2)cs1 | 0.562 µM [rising, full curve, poor fit] | – |
| Cc1ccc(C(=O)Nc2cccc3[nH]c(C(F)(F)F)nc23)cc1 | 10 µM [falling, partial curve, poor fit] | – |
| COC(=O)c1cc(-c2ccc(OC)cc2)n[nH]1 | 14.1 µM [rising, partial curve, poor fit] | – |
| Cc1cccc(C2(c3cccc(C)c3)OC(=O)c3ccccc32)c1 | 22.4 µM [falling, partial curve, poor fit] | – |
| CCC(NC(=O)c1cc(COc2cc(C)c(Cl)c(C)c2)on1)c1ccncc1 (configuration not stated) | 11.2 µM [falling, partial curve, poor fit] | – |
| COc1ccc(Cl)cc1N(C)C(=O)CCc1nc(-c2ccc(C)cc2)no1 | 35.5 µM [falling, single point] | – |
| CC1CCC/C(=N/Nc2nc3ccccc3s2)C1 (configuration not stated) | 6.31 µM [falling, full curve] | – |
| COc1ccc(Cl)cc1C(=O)Nc1ccc(S(=O)(=O)N2CCCC2)cc1 | 20.6 µM [rising, single point] | – |
| CCCCNCc1cc(Cl)c(OCCC)c(OCC)c1 | 0.103 µM [falling, full curve, poor fit] | – |
| Cc1ccc(OCCCN2CCOCC2)c([N+](=O)[O-])c1 | 29.1 µM [rising, partial curve, poor fit] | – |

| Structure (SMILES) | AC50 [1] | AC50 [2] |
| --- | --- | --- |
| Cc1cc(O)c(C(C)C)cc1NC(=O)Nc1cccc2ccccc12 | 35.5 µM [falling, single point] | – |
| CCN1CCN(c2oc(COc3ccc(-c4ccccc4)cc3)nc2C#N)CC1 | 35.5 µM [falling, single point] | – |
| COc1cc(/C=C2/C(=N)N3C(SC)=NSC3=NC2=O)ccc1OC(=O)c1ccco1 | 1.26 µM [rising, full curve] | – |
| Cc1cc(-c2ccccc2)nc2cc(C(=O)OC(C)C)nn12 | 31.6 µM [rising, single point] | – |
| COc1ccc(S(=O)(=O)Nc2cc3c4c(oc3c3ccccc23)CCCC4=O)cc1 | 23.1 µM [rising, single point] | – |
| CN1C(=O)NC(c2ccc(O)cc2)C2=C1CN(c1ccc(O)cc1)C2=O (configuration not stated) | 25.1 µM [rising, single point] | – |
| O=C(CC(=O)c1ccccc1)Nc1cccnc1Cl | 11.6 µM [falling, partial curve] | – |
| O=C(Cn1c[n+](CC(=O)c2ccc([N+](=O)[O-])cc2)cn1)c1ccc([N+](=O)[O-])cc1 | 12.6 µM [falling, single point] | – |
| Cc1cccc(NC(=O)CSC2=NN3CCCC(=O)N=C3S2)c1C | 8.91 µM [rising, partial curve, poor fit] | – |
| CCCCOc1ccccc1C1CC(=O)Nc2cc(C)c(C)cc21 (configuration not stated) | 14.1 µM [rising, partial curve, poor fit] | – |
| CNc1nc(C)nc(N/N=C/c2ccccc2)n1 | 7.94 µM [falling, partial curve] | – |
| CC1CCCCC1NC(=O)NC(=O)CCl (configuration not stated) | 25.9 µM [falling, single point] | – |
| O=C1CCCc2nc(N3CCN(c4ccccc4)CC3)ncc21 | 0.794 µM [rising, full curve, poor fit] | – |
| C=CC[C@H](CC(=O)N(CCO)Cc1ccccc1)C(=O)N[C@@H](COC(=O)[C@@H](CC=C)CC(=O)OC(C)(C)C)Cc1c[nH]c2ccccc12 | 29.1 µM [falling, single point] | – |
| OC(COc1ccc2ccccc2c1)Cn1cncn1 (configuration not stated) | 3.26 µM [rising, partial curve, poor fit] | – |
| COc1ccc(-c2cc3cc(OC)c(OC)cc3cn2)cc1 | 0.651 µM [rising, full curve, poor fit] | – |
| CCOC(=O)N1CCN(C(=O)c2cc(Cl)c(Cl)cc2C(=O)O)CC1 | 29.1 µM [rising, single point] | – |
| CCOC(=O)C1=C(C)NC(SCC(=O)O)=NC1c1ccccc1 (configuration not stated) | 10 µM [falling, partial curve, poor fit] | – |
| COc1ccccc1OC(=O)C1CC(=O)N(c2ccc(Cl)cc2)C1 (configuration not stated) | 6.51 µM [rising, single point] | – |
| Cc1ccc(C(=O)CCC(=O)Nc2ccc(C)cn2)cc1 | 13 µM [falling, partial curve] | – |
| Cc1cccnc1NC(=O)C1COc2ccccc2O1 (configuration not stated) | 35.5 µM [rising, single point] | – |
| Cc1cc2nc(-c3ccc(NC(=O)c4cccnc4)cc3)oc2cc1C | 2.24 µM [rising, partial curve, poor fit] | – |

Five compounds picked at random from the list so far:

| Structure (SMILES) | AC50 [1] | AC50 [2] |
| --- | --- | --- |
| O=C(CC(=O)c1ccccc1)Nc1cccnc1Cl | 11.6 µM [falling, partial curve] | – |
| CCOC(=O)N1CCN(C(=O)c2cc(Cl)c(Cl)cc2C(=O)O)CC1 | 29.1 µM [rising, single point] | – |
| COc1ccccc1OC(=O)C1CC(=O)N(c2ccc(Cl)cc2)C1 (configuration not stated) | 6.51 µM [rising, single point] | – |
| Cc1cccc(NC(=O)CSC2=NN3CCCC(=O)N=C3S2)c1C | 8.91 µM [rising, partial curve, poor fit] | – |
| OC(COc1ccc2ccccc2c1)Cn1cncn1 (configuration not stated) | 3.26 µM [rising, partial curve, poor fit] | – |

Following part.

| Structure (SMILES) | AC50 [1] | AC50 [2] |
| --- | --- | --- |
| C(=N/N1CCN(c2ccccc2)CC1)/c1cccs1 | 1.16 µM [rising, full curve] | – |
| O=C(O)[C@H]1CCCC[C@H]1C(=O)NCCc1ccccc1 | 5.17 µM [rising, partial curve, poor fit] | – |
| CC(=O)c1cc2c(cc1NC(=O)c1c(-c3ccccc3)noc1C)OCO2 | 1.12 µM [falling, partial curve, poor fit] | – |
| Cc1ccc(N(CC(O)Cn2c3ccccc3c3ccccc32)S(C)(=O)=O)c(C)c1 (configuration not stated) | 35.5 µM [falling, single point] | – |
| Cn1c(=O)c(C#N)c(-c2ccc(F)cc2)c2cc(C(=O)c3cc(Cl)cc(Cl)c3O)cnc21 | 14.1 µM [falling, single point] | – |
| CCOc1ccccc1NC(=S)NCc1ccccc1 | 1.26 µM [rising, full curve, poor fit] | – |
| O=C(CNC(=O)c1ccc([N+](=O)[O-])cc1)N/N=C\c1ccc(OC(=O)c2ccccc2)cc1 | 5.8 µM [falling, single point] | – |
| O=C(O)c1cc(Cl)ccc1NC(=O)C1CCCO1 (configuration not stated) | 35.5 µM [falling, single point] | – |
| CCCc1nnc(SCC(=O)Nc2nccs2)o1 | 35.5 µM [rising, single point] | 35.5 µM [falling, single point] |
| NNC(=O)c1cccc(S(=O)(=O)Nc2cccc(C(F)(F)F)c2)c1 | 2 µM [falling, partial curve, poor fit] | – |
| O=C(N/N=C/c1ccc(Br)s1)c1c[nH]c2ccccc12 | 11.6 µM [falling, partial curve] | – |
| CCOc1ccc(S(=O)(=O)N2CCOCC2)cc1NC(=O)CSCc1c(C)noc1C | 20.6 µM [rising, single point] | – |
| CCOC(=O)N1CCN(C(=O)CSc2nc(CC)nc3c2c(=O)n(C)c(=O)n3C)CC1 | 0.447 µM [rising, partial curve, poor fit] | – |
| CCOC(=O)N1CCN(C(=O)Nc2ccc3oc(C)nc3c2)CC1 | 6.51 µM [falling, single point] | – |
| COc1ccc(OCC(O)CN2C(=O)NC(C)(C)C2=O)cc1 (configuration not stated) | 2.82 µM [rising, partial curve, poor fit] | – |
| Cc1cccc(Nc2sc(C(=O)c3ccc(Cl)cc3)c(N)c2C(N)=O)c1 | 10 µM [falling, partial curve] | – |
| CCCNC(=O)c1c(CSc2ccccc2)noc1C(=O)NCc1ccccc1 | 35.5 µM [falling, single point] | – |
| O=C(Oc1c(Cl)cc(Cl)c2cccnc12)c1cccs1 | – | 16.4 µM [falling, partial curve] |
| NC(=O)c1ccccc1N/C=C/C(=O)c1ccccc1 | 0.731 µM [falling, full curve] | – |
| Cn1nc(-c2ccccc2)c(CSc2ccccc2Cl)c1Cl | 23.1 µM [rising, single point] | – |
| CCN(CC)C(=O)c1ccc(O)c(OC)c1 | 23.1 µM [rising, single point] | – |
